# Assay results from the supplement of paper PMC3334620.
# Whole data set: some 33,000 sequences, median “E-score (-0.5 to 0.5)” near -0.0034, cut for the highest 2% near 0.25. This is one part of the list.
# Molecular target: T1, Yap3 (UniProt P38749)
# T1 sequence: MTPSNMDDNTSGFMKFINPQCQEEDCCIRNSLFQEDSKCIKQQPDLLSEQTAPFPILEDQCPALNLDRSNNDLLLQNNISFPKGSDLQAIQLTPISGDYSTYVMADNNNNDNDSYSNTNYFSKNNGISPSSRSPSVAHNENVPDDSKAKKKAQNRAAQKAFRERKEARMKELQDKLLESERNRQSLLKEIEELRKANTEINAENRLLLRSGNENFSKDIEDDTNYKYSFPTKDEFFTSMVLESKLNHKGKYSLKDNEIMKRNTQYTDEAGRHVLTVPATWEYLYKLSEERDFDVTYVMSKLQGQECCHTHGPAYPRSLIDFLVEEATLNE
# Test: PBM E-score (8-mer binding enrichment) (E-score (-0.5 to 0.5)); higher = stronger / more preferred TF binding
# Conditions: protein concentration: 100 nM; construct: GST-full length
# Method in brief: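 Each ungapped eight-base word and its reverse complement, pooled, received an E-score from the Universal PBM Analysis Suite. Underlying scans, normalised with masliner, recorded fluorescent anti-GST bound to GST-tagged yeast transcription factors. These were applied at about 100-200 nM to universal all-10-mer Agilent arrays double-stranded by primer extension.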
row,Sequence,PBM E-score
1,GAGACCAC,-0.0698
2,CGATCGGA,-0.0721
3,AGTTTGTA,0.0697
4,CCGACTCA,-0.03
5,CAAGAGTA,0.0601
6,GACCTACC,-0.2
7,ATTTGAAG,-0.0122
8,CGATTACG,0.181
9,ATATCGAC,0.218
10,CGTATTCA,0.134
11,AGGTTGAT,-0.169
12,ATACCAGC,-0.0358
13,CCGTTAAC,0.00505
14,GGGCCGCA,-0.247
15,AGTCCCAG,-0.189
16,AAAAAATT,0.0987
17,CACCAGGG,-0.224
18,ACCAAGCT,0.132
19,CATGTTGG,-0.0821
20,GGCAATCA,0.147
21,ACGAGTAT,0.0978
22,AGTTGGAC,0.037
23,CTCCTTGA,-0.104
24,ACTGCTGA,-0.00706
25,AACGCGCA,0.103

row,Sequence,PBM E-score
1,ACAAACCA,0.0141
2,AAATGAAG,0.205
3,CTAAGCCA,-0.235
4,ATAATAAC,0.173
5,ACTCCACG,-0.121
6,CTGAGTAA,0.246
7,ATACCCTG,-0.0024
8,AGATCAAA,0.0085
9,AGAATAAG,0.11
10,CCTGTAGA,0.0297
11,GCCATCTA,-0.0168
12,CCAGATAA,0.0371
13,GGCATTTA,-0.0673
14,AAGGTGGG,-0.193
15,AACCTAAC,-0.00525
16,TGCCCAAA,-0.236
17,ATTCGCCC,-0.0869
18,CAACCGGC,-0.0724
19,ATTAGCTA,0.15
20,ATAGCGCC,0.0505
21,CAAGCAGA,0.0726
22,ATGTGTAC,0.00561
23,AGCACTAC,-0.088
24,ATGAGCTG,-0.0855
25,AAGTGCCT,-0.238

row,Sequence,PBM E-score
1,ACCCTGCG,-0.0961
2,CCAGACGC,-0.104
3,CAACTAAC,0.246
4,ACGCGTGG,-0.0187
5,CCTATGGA,-0.0335
6,GCGGAGGA,-0.215
7,AAACGGAA,0.263
8,CCTGGTGC,-0.102
9,ATGCTCGG,0.0894
10,TTAGTCAA,0.27
11,AGGTCAGA,-0.144
12,CGTTGTCA,0.0756
13,AAACGTCT,-0.0679
14,AAGTGGAT,-0.171
15,CTCCCGGC,-0.17
16,CGGGTGGC,-0.289
17,CCGTGACA,-0.0217
18,AGGCTTTG,-0.126
19,GTATCTGA,0.133
20,AGGTCATG,-0.136
21,GATCTGTA,0.102
22,AGCTTAAT,0.13
23,CTCTGCTC,-0.117
24,CCTTGTCC,0.0247
25,TACGTGGA,0.045

# Some of the entries above, reformatted:
row | Sequence | PBM E-score
14 | AAGTGGAT | -0.171
15 | CTCCCGGC | -0.17
16 | CGGGTGGC | -0.289
17 | CCGTGACA | -0.0217

# The results go on.

row,Sequence,PBM E-score
1,AGTCAGCA,-0.0413
2,ACAGGGGA,-0.191
3,CGTTGAAG,-0.0864
4,GCGAGTAC,0.141
5,ATACTTGC,0.148
6,CCTCTAGA,-0.00835
7,CAACTGTC,-0.0969
8,ATACTTCC,0.0777
9,CCGAGGCC,-0.185
10,CGATCTGC,0.0136
11,GCGAGGTA,-0.0952
12,GTCGATGA,-0.0348
13,GACTGGGC,-0.246
14,ACGTGGGG,-0.169
15,ATACGAGA,-0.119
16,GAATACTC,-0.0585
17,ACTCGGGG,-0.161
18,CGGCAAAC,0.0461
19,ACATCGCT,0.0617
20,GGACTGTA,-0.0642
21,AATGCGGT,-0.139
22,CCTCCAGA,-0.18
23,AGGCAGAT,-0.00338
24,AGGTTCCA,-0.0733
25,CGTTTTAG,-0.0422

# Copied from the list:
# For PBM E-score, CAACTGTC is listed with -0.0969
# For PBM E-score, AGTCAGCA is listed with -0.0413
# For PBM E-score, CGTTTTAG is listed with -0.0422

# More entries follow:

row,Sequence,PBM E-score
1,GGACCACA,-0.0509
2,GCTCAGGA,-0.0894
3,AAAGTGTT,0.177
4,ACGAAGTA,-0.0215
5,AATATGTA,0.222
6,AGGTTCGC,-0.248
7,ACGACAGG,0.0227
8,ACTCCGCC,-0.124
9,ACTCACCC,-0.0428
10,TAGAACGA,0.0804
11,ATACACCC,0.03
12,TGAACGAA,-0.027
13,CAAGTGAA,0.0621
14,TAAATGCA,0.211
15,GGAGTCCA,-0.111
16,TAATTAAA,0.115
17,ATCATTGG,0.033
18,CATCCCTC,-0.16
19,AGTGTTGC,0.129
20,CAACGGCG,-0.0242
21,AAGAGAAG,-0.0633
22,AGCGTTGC,0.0498
23,AGTCAGAG,-0.0578
24,TAATCGCA,0.123
25,TGAGGCCA,0.0548

row,Sequence,PBM E-score
1,CGAGGTTA,0.145
2,CCTTTTTA,-0.0267
3,ACTGTGCA,-0.0351
4,CATTGGAC,-0.042
5,AGCCTACG,0.0774
6,CGTAAATC,-0.00431
7,TAACATGA,0.171
8,TCGGTGAA,0.0338
9,AAGCTTAC,0.00508
10,ATTAAGCA,0.0634
11,CAGTGCTC,-0.138
12,AAAACCTC,0.112
13,GAGGGAGA,-0.171
14,CGCCCTGC,-0.202
15,ATAGTAAG,0.152
16,AGTCCGCC,-0.0339
17,CACGTACA,0.0193
18,CGCAACCG,-0.126
19,GATTTAGA,0.0922
20,CAGCTTCG,-0.0144
21,GCGAGTTA,0.126
22,GACTTCGA,-0.00531
23,ATAGGATG,0.198
24,AATCTATA,0.164
25,AAGCGTAC,-0.044

row,Sequence,PBM E-score
1,CGGGGTGA,-0.0798
2,AGCGAGGC,-0.0759
3,AGGAAGCA,-0.123
4,AGATTCAT,-0.104
5,AGTTTTTA,0.0105
6,CAGTCGCC,-0.204
7,TGAACCCA,-0.0237
8,GAAACTTA,0.177
9,CGTAGAAA,0.0328
10,AAACTTTA,0.21
11,AATCTGGT,0.0811
12,CACAACAA,0.0683
13,CGTACTAC,0.0488
14,AGCCGGAT,-0.0454
15,CCTGAGGA,-0.0633
16,CAAGTGGA,0.0657
17,ACACCCGC,-0.0407
18,TAGTCCGA,0.0255
19,GCTCAGCA,-0.0726
20,GACCAAAC,0.0224
21,AAGTATTA,0.142
22,CTTGGACA,-0.0572
